Reference: article PMC3260238
For some assays here: The comparison behind a weaker result is the experiment's own reference, which may not be listed here. For some assays here: The exact form of at least one protein or probe is not confirmed. For some assays here: Whether high values mean tight binding is not given here for every scale.

By UniProt entry, the sequences of proteins in these tests, tags left out. Where a name states a change or a piece, a line headed by the entry shows the natural chain unless it says otherwise.
UniProt P54132: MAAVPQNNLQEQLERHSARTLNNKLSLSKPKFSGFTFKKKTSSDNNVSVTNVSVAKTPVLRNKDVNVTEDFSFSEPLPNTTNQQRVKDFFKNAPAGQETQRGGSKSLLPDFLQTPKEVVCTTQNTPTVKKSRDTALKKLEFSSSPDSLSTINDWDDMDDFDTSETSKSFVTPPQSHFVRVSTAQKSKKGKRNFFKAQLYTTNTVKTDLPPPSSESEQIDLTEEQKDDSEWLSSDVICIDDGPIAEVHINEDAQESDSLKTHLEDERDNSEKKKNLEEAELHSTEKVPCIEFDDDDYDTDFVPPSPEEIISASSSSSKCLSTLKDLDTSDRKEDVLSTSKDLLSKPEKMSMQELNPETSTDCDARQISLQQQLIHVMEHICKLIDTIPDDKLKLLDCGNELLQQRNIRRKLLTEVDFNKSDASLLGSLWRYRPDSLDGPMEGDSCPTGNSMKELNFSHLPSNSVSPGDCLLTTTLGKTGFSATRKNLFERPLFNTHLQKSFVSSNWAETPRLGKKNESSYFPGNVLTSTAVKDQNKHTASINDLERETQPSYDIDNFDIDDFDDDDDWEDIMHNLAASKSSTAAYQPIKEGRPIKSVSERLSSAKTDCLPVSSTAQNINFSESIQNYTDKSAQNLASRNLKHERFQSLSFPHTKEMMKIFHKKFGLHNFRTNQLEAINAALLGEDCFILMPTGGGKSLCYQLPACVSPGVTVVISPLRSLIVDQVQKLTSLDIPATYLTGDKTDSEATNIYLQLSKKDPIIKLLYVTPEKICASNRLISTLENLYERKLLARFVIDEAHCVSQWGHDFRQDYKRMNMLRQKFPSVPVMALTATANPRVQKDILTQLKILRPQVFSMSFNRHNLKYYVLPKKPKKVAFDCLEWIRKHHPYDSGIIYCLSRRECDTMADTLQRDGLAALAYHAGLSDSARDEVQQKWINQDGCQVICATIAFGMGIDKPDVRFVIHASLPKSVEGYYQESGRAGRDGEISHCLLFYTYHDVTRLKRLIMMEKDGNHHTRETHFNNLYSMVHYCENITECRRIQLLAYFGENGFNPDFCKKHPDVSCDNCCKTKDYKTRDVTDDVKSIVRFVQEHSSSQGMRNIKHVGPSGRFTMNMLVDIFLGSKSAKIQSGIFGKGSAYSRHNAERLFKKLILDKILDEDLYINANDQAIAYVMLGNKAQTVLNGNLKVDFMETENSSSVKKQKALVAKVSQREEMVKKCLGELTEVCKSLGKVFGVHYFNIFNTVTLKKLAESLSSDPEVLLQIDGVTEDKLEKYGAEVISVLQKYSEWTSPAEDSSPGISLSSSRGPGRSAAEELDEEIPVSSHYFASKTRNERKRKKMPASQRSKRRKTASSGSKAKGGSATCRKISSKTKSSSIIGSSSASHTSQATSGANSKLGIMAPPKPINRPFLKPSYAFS
UniProt Q14191, whole entry: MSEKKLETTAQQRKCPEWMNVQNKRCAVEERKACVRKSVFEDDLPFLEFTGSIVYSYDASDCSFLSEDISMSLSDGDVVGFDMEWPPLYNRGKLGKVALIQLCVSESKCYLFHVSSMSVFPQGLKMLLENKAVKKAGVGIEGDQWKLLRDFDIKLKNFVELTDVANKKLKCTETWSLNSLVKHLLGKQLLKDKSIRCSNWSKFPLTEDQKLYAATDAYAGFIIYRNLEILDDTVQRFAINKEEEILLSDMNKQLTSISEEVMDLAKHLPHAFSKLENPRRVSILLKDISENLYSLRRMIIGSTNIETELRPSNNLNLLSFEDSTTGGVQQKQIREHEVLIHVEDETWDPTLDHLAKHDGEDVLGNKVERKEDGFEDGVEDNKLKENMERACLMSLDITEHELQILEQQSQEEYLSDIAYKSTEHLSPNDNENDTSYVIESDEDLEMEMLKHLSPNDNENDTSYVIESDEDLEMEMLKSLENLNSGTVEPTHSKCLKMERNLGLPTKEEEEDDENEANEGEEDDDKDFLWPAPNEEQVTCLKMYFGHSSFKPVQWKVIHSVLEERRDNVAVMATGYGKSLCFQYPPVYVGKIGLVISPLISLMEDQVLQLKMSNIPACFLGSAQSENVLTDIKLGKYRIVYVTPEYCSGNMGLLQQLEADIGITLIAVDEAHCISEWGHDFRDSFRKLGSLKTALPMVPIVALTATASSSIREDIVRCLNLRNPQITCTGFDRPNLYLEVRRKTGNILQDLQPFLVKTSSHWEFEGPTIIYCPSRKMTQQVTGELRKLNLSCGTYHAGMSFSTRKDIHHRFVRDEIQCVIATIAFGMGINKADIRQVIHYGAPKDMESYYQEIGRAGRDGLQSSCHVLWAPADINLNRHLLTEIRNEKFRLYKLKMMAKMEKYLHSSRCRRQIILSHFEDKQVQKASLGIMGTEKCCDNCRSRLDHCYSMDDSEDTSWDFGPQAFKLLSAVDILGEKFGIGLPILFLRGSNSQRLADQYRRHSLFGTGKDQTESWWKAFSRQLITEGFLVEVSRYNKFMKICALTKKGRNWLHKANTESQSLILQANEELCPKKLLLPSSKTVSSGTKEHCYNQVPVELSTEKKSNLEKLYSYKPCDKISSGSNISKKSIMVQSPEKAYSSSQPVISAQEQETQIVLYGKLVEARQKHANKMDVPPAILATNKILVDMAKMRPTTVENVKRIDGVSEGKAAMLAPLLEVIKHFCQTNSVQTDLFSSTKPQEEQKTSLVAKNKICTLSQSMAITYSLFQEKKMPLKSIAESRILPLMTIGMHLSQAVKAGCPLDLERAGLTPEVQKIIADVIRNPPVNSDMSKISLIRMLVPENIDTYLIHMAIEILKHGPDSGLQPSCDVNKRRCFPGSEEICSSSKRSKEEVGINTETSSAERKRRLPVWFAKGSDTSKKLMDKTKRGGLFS

Columns and labels:
Test in all cases: EMSA
BLM = BLM (UniProt P54132); conditions: ATPgS, marginal, EMSA: 40 mM Tris-HCl pH 8.0, 4 mM MgCl2, 5 mM DTT, 1 mM ATPgS, 0.1 ug BSA in 10 ul, 4 C, 20 min, +10 mM KCl for quadruplexes, 4% gel, 0.5x Tris-glycine pH 8.3, recombinant protein, residues 1-1417, protein details: C-terminal FLAG
WRN (human) = WRN (human) (UniProt Q14191); conditions: ATPgS, EMSA: 40 mM Tris-HCl pH 8.0, 4 mM MgCl2, 5 mM DTT, 1 mM ATPgS, 0.1 ug BSA in 10 ul, 4 C, 20 min, +10 mM KCl for quadruplexes, 4% gel, 0.5x Tris-glycine pH 8.3, recombinant protein, residues 1-1432, protein details: His6, label: 5'-32P
[1] = molecular target: WRN exonuclease-minus (human) (UniProt Q14191); conditions: similar to wild type; EMSA: 40 mM Tris-HCl pH 8.0, 4 mM MgCl2, 5 mM DTT, 1 mM ATPgS, 0.1 ug BSA in 10 ul, 4 C, 20 min; +10 mM KCl for quadruplexes; 4% gel, 0.5x Tris-glycine pH 8.3; recombinant protein; label: 5'-32P; folded or branched DNA

GCGCGGAAGCTTGGCTGCAGAATATTGCTAGCGGGAATTCGGCGCG / CGCGCCGAATTCCCGCTAGTGGCGCCTTGCAGCCAAGCTTCCGCGC [Bubble DNA]
binding result (BLM; Kd not determinable, label: 5'-32P on strand …): binds more weakly

CGCGCCGAATTCCCGCTAGCAATATTCTGCAGCCAAGCTTCCGCGC / GGCGAACTGCCATTCGCACTTACACTGCTAGCGGGAATTCGGCGCG [Splayed arm DNA]
binding result (BLM; no significant complex with excess DNA, label: 5'-32P on strand …): binds more weakly

GGTTAGGGTTAGGGTTAGGGTTAGGGTTAGTTAGGGTTAGGGT [single-stranded TeR43]
binding result (BLM; label: 5'-32P, single-stranded DNA): binds more weakly | binding signal (DNA:WRN stoichiometry at saturation) (WRN (human); single-stranded DNA): 0.05

GGTTAGGGTTAGGGTTAGGGTTAGGGTTAGTTAGGGTTAGGGT [G'4 TeR43 quadruplex]
binding result (BLM; 10 mM KCl, label: 5'-32P, folded or branched DNA): binds more weakly | binding signal (DNA:WRN stoichiometry at saturation) (WRN (human); 10 mM KCl, folded or branched DNA): 0.05

GGTTAGGGTTAGGGTTAGGGTTAGGGTTAGTTAGGGTTAGGGT [G'2 TeR43 quadruplex]
binding result (BLM; 10 mM KCl, no significant complex with excess DNA, label: 5'-32P, folded or branched DNA): binds more weakly | binding result [1]: binds
